In publication PMC7419011:
No constants are given. Whether binding was seen depends on the method and setting. In cells and extracts the contact can be indirect. A yes stands for co-enrichment or nearness to the bait. Other partners may have been found. Where a sequence is shown, tags or fusion partners need not be part of it.

B1: BSMV coat protein (made during BSMV infection) (protein, UniProt P04866 1-198)
chain: MPNVSLTAKGGGHYIEDQWDTQVVEAGVFDDWWVHVEAWNKFLDNLRGINFSVASSRSQVAEYLAALDRDLPADVDRRFAGARGQIGSPNYLPAPKFFRLDKRTIAELTRLSRLTDQPHNNRDIELNRAKRATTNPSPPAQAPSENLTLRDVQPLKDSALHYQYVLIDLQSARLPVYTRKTFERELALEWIIPDAEEA
B2: BSMV TGB1 (untagged, made during BSMV infection) (protein, UniProt P04867 1-528)
chain: MDMTKTVEEKKTNGTDSVKGVFENSTIPKVPTGQEMGGDGSSTSKLKETLKVADQTPLSVDNGAKSKLDSSDRQVPGVADQTPLSVDNGAKSKLDSSDRQVPGPELKPNVKKSKKKRIQKPAQPSGPNDLKGGTKGSSQVGENVSENYTGISKEAAKQKQKTPKSVKMQSNLADKFKANDTRRSELINKFQQFVHETCLKSDFEYTGRQYFRARSNFFEMIKLASLYDKHLKECMARACTLERERLKRKLLLVRALKPAVDFLTGIISGVPGSGKSTIVRTLLKGEFPAVCALANPALMNDYSGIEGVYGLDDLLLSAVPITSDLLIIDEYTLAESAEILLLQRRLRASMVLLVGDVAQGKATTASSIEYLTLPVIYRSETTYRLGQETASLCSKQGNRMVSKGGRDTVIITDYDGETDETEKNIAFTVDTVRDVKDCGYDCALAIDVQGKEFDSVTLFLRNEDRKALADKHLRLVALSRHKSKLIIRADAEIRQAFLTGDIDLSSKASNSHRYSAKPDEDHSWFKAK

Target: γb-3xFlag (BSMV γb with a C-terminal 3xFlag epitope, expressed from RNAγ_(γb-3xFlag)) (Barley stripe mosaic virus)
Assay: affinity purification with mass spectrometry; total protein of BSMV-infected N. benthamiana leaves at 3 dpi, anti-FLAG-agarose beads, elution with FLAG peptides, LC-MS/MS; untagged virus as negative control

| Binder | binding |
| --- | --- |
| B1 | binds |
| B2 | binds |
